PubChem BioAssay AID652243 – Drosophila RNAi Screening Center – 2013
Purpose: 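Knock-downs that decrease or increase androgen receptor reporter signal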 (primary screen). Cell system: Drosophila S2R+ cells. Knock-down reagent: long dsRNA against Drosophila genes. Timing: 72 h (48 h, then 24 h hormone). Challenge: synthetic androgen R1881 at 10 nM for 24 h. Measurement: 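Per-well raw luminescence of the androgen-driven firefly reporter and of the Renilla control, two replicates each, without normalisation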. Direction: firefly reporter light: higher = more light from androgen-responsive reporter; Renilla control light: higher = more constitutive control signal (cell number, transfection). Hit rule: 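Across duplicate plates, a knock-down whose log firefly/Renilla ratio shifted a set fold down or up from the GFP/LacZ control mean was a hit; the downward cut appears as both 1.5 and 3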. Calls: active = hit: reporter lowered or raised; inactive = no hit.
In all, the deposit lists about 24,000 reagents; shown is an unselected part of those with a known target gene and a result. Of all reagents, 246 (1%) are marked active. 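Plates not normalised; calls are printed but the firefly/Renilla ratio behind them is not deposited; fold cut for lowering reported inconsistently.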 Raw values vary from plate to plate and are shown uncorrected. Names joined by + are all predicted targets of the reagent. The record does not give: the amount of reagent.

no.	gene	dsRNA	firefly reporter light, replicate 1	firefly reporter light, replicate 2	Renilla control light, replicate 1	Renilla control light, replicate 2	Outcome
1	CG4949 (GeneID 32691)	DRSC19926	1.36e5	1.35e5	6.51e5	6.67e5	inactive
2	CG33791 + CG18170	DRSC08523	1.97e5	1.89e5	2.74e6	3.18e6	inactive
3	CG33791 + CG18170	DRSC08601	29963	1.12e5	6.43e5	1.40e6	inactive
4	CG33791 + CG18170	DRSC24614	9.37e5	9.03e5	7.16e5	7.98e5	inactive
5	CG33791 + CG18170	DRSC39043	5.29e5	3.12e5	1.42e6	9.74e5	inactive
6	in (GeneID 40246)	DRSC11888	2.04e5	2.33e5	2.00e6	2.15e6	inactive
7	Pp1-87B (GeneID 49260)	DRSC16794	1.48e5	2.05e5	8.06e5	9.17e5	inactive
8	Pp1-87B (GeneID 49260)	DRSC23299	7.56e5	9.42e5	1.26e6	1.64e6	inactive
9	Pp1-87B (GeneID 49260)	DRSC27290	6.16e5	5.42e5	7.40e5	7.78e5	inactive
10	Spf45 (GeneID 3355114)	DRSC03826	2.17e5	2.05e5	1.71e6	1.51e6	inactive
11	CG10154 (GeneID 39509)	DRSC09707	1.49e5	1.60e5	1.35e6	1.43e6	inactive
12	Obp83ef (GeneID 40747)	DRSC12268	1.05e5	98617	2.02e6	1.79e6	inactive
13	Obp83ef (GeneID 40747)	DRSC30027	4.91e5	3.26e5	1.16e6	7.03e5	inactive
14	CG16815 (GeneID 34725)	DRSC02521	1.36e5	1.67e5	1.53e6	1.57e6	inactive
15	CG16815 (GeneID 34725)	DRSC28136	3.96e5	2.79e5	1.21e6	8.90e5	inactive
16	Phlpp (GeneID 35178)	DRSC02065	2.70e5	2.29e5	2.65e6	2.04e6	inactive
17	Phlpp (GeneID 35178)	DRSC22808	7.71e5	1.17e6	1.20e6	1.66e6	inactive
18	Phlpp (GeneID 35178)	DRSC36847					inactive
19	Ubc4 (GeneID 39133)	DRSC11312	8.77e5	8.03e5	1.53e6	1.57e6	inactive
20	CG17959 (GeneID 31288)	DRSC18142	1.91e5	2.18e5	2.02e6	2.97e6	inactive
21	CG17959 (GeneID 31288)	DRSC28767	8.64e5	7.35e5	1.75e6	1.44e6	inactive
22	CG14110 (GeneID 39500)	DRSC10113	3.58e5	4.34e5	2.59e6	2.04e6	inactive
23	spen (GeneID 44205)	DRSC00839	9.00e5	7.40e5	4.37e6	2.42e6	inactive
24	spen (GeneID 44205)	DRSC37650	5.37e5	4.51e5	1.69e6	1.53e6	inactive
25	CG7137 (GeneID 37204)	DRSC07017	8.41e5	7.34e5	1.34e6	1.05e6	inactive
26	CG13284 (GeneID 35021)	DRSC02256	2.02e5	1.57e5	1.96e6	1.70e6	inactive
27	lncRNA:iab8 (GeneID 12798430)	DRSC22252	8.64e5	1.03e6	2.86e5	3.00e5	inactive
28	lncRNA:iab8 (GeneID 12798430)	DRSC28445	3.18e5	4.98e5	8.44e5	1.94e6	inactive
29	NfI (GeneID 43782)	DRSC17158	2.76e5	2.92e5	4.67e6	3.32e6	inactive
30	CG4218 (GeneID 34848)	DRSC01939	1.61e5	1.48e5	1.79e6	1.64e6	inactive
31	CG4218 (GeneID 34848)	DRSC27814	1.57e5	2.56e5	4.30e5	7.45e5	inactive
32	CG42404 (GeneID 41842)	DRSC15558	1.62e5	1.55e5	1.96e6	2.30e6	inactive
33	CG14759 (GeneID 35803)	DRSC06494	3.87e5	3.38e5	2.69e6	1.51e6	inactive
34	His3.3A (GeneID 33736)	DRSC03343	1.67e5	1.36e5	22310	34862	inactive
35	His3.3A (GeneID 33736)	DRSC25053	5.99e5	4.01e5	2.38e5	2.80e5	inactive
36	lncRNA:CR32730 (GeneID 3772297)	DRSC22957	3.26e5	8.16e5	1.01e6	2.27e6	inactive
37	CG5323 (GeneID 37137)	DRSC06929	1.20e5	1.78e5	2.20e6	1.94e6	inactive
38	Paics (GeneID 32228)	DRSC20305	75343	71179	5.52e5	4.81e5	inactive
39	VhaM9.7-c (GeneID 38503)	DRSC08204	8.28e5	5.06e5	1.08e6	1.29e6	inactive
40	VhaM9.7-c (GeneID 38503)	DRSC30083	8.58e5	8.96e5	1.32e6	1.13e6	inactive

Already shown: an excerpt of the list.
no.	gene	dsRNA	firefly reporter light, replicate 1	firefly reporter light, replicate 2	Renilla control light, replicate 1	Renilla control light, replicate 2	Outcome
12	Obp83ef (GeneID 40747)	DRSC12268	1.05e5	98617	2.02e6	1.79e6	inactive
13	Obp83ef (GeneID 40747)	DRSC30027	4.91e5	3.26e5	1.16e6	7.03e5	inactive
14	CG16815 (GeneID 34725)	DRSC02521	1.36e5	1.67e5	1.53e6	1.57e6	inactive
15	CG16815 (GeneID 34725)	DRSC28136	3.96e5	2.79e5	1.21e6	8.90e5	inactive
